Record: PubChem BioAssay AID1224826 (NIAID, 2016)

Screen: 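Knock-downs that raise or lower Tnf reporter signal after endotoxin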 (primary screen)
System: RAW264.7 G9 macrophages from mouse bearing reporters for p65 (GFP) and the Tnf promoter (mCherry)
Reagent: siRNA pool against mouse genes, 100 nM
Timing: 16 h of LPS stimulation, after 2 days of siRNA transfection
Challenge: bacterial lipopolysaccharide (Salmonella minnesota R595), 10 ng/ml
Measured: 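Nuclear mCherry signal of the Tnf promoter reporter measured by imaging after background removal, scaled to each plate median and turned into robust z-scores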
Direction: Tnf reporter robust z-score: higher = stronger Tnf promoter reporter signal after LPS
Call rule: 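Called active when robust z-score is at most -1.3, matching the median of the Tlr4 knock-down control, or over 3; control wells and wells with under 50 cells never active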
Calls: active = Tnf reporter clearly lowered or raised; inactive = no clear change in Tnf reporter
The deposit covers about 17,000 reagents; shown is a part drawn at random. Of all reagents, about 1,110 (6.6%) were called active. 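Active means lowered or raised reporter signal; replicate intensities are raw and not normalised per plate.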 Further read-outs or replicates are left out here. Reagent sequences are not shown.

What did the screen give for Grsf1?
Tnf reporter robust z-score: 0.23; fewer than 50 cells in well: enough cells in well; Outcome: inactive

How did the screen score Vmn1r195?
Tnf reporter robust z-score: 0.22; fewer than 50 cells in well: enough cells in well; Outcome: inactive

For Arl4c, what was measured?
Tnf reporter robust z-score: 0.64; fewer than 50 cells in well: enough cells in well; Outcome: inactive

With Ddhd1, what was measured?
fewer than 50 cells in well: fewer than 50 cells per well; well left out of calls; Outcome: inactive

For Trpv2, what was measured?
Tnf reporter robust z-score: 0.05; fewer than 50 cells in well: enough cells in well; Outcome: inactive

What is on record for Sag?
Tnf reporter robust z-score: 0.44; fewer than 50 cells in well: enough cells in well; Outcome: inactive

For Vkorc1l1, what was measured?
Tnf reporter robust z-score: 1.92; fewer than 50 cells in well: enough cells in well; Outcome: inactive

How did the screen score Rgp1?
Tnf reporter robust z-score: -0.35; fewer than 50 cells in well: enough cells in well; Outcome: inactive

With Pogk, what does the deposit list?
Tnf reporter robust z-score: -0.86; fewer than 50 cells in well: enough cells in well; Outcome: inactive

What is on record for Sertad2?
Tnf reporter robust z-score: 0.22; fewer than 50 cells in well: enough cells in well; Outcome: inactive

For Wfikkn2, how do the results read?
Tnf reporter robust z-score: -0.76; fewer than 50 cells in well: enough cells in well; Outcome: inactive

What is on record for Gskip?
Tnf reporter robust z-score: 0.56; fewer than 50 cells in well: enough cells in well; Outcome: inactive

For Dcn, how do the results read?
Tnf reporter robust z-score: -0.84; fewer than 50 cells in well: enough cells in well; Outcome: inactive

How did the screen score Rab11fip3?
Tnf reporter robust z-score: -1.34; fewer than 50 cells in well: enough cells in well; Outcome: active

What is on record for Mrps21?
Tnf reporter robust z-score: 0.06; fewer than 50 cells in well: enough cells in well; Outcome: inactive

How did the screen score Rab23?
Tnf reporter robust z-score: 0.1; fewer than 50 cells in well: enough cells in well; Outcome: inactive

How did the screen score Tns2?
Tnf reporter robust z-score: 0.74; fewer than 50 cells in well: enough cells in well; Outcome: inactive

For Prr15, how do the results read?
Tnf reporter robust z-score: 1.79; fewer than 50 cells in well: enough cells in well; Outcome: inactive

How did the screen score Spcs2?
Tnf reporter robust z-score: 0.23; fewer than 50 cells in well: enough cells in well; Outcome: inactive

What did the screen give for Or10al6?
Tnf reporter robust z-score: -1.17; fewer than 50 cells in well: enough cells in well; Outcome: inactive

What did the screen give for Fcgr2b?
Tnf reporter robust z-score: -0.8; fewer than 50 cells in well: enough cells in well; Outcome: inactive
